Where “and” joins values, the source holds several entries; their conditions need not be identical. Identical values can stand only once. ± gives the standard deviation of the averaged measurements. The full ranking holds about 3,800 compounds; the median of “cell shape (eccentricity) Z-score vs DMSO control” is about 1.1, and the lowest 2% start at about -4.7. Some of the results follow.

The subject of the test is human monocyte-derived macrophages (M0). Nature of the test: cell shape (eccentricity) Z-score vs DMSO control; higher = more elongated, M2-like morphology. The conditions noted are these: 20 µM; 24 h; macrophage state: M0 (M-CSF). How it is done: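 Primary human monocyte-derived macrophages (M-CSF differentiated, pooled from 4 donors, 5000 cells/well in 384-well plates) were treated with each compound at 20 uM for 24 h, then fixed and stained with phalloidin/DAPI and imaged on an Opera Phenix (6 fields, about 1000 cells/well). Cell eccentricity was measured with CellProfiler, and a Z-score (t-test) was computed against 4 DMSO control wells in the same row. Negative values mean round (M1-like) cells and positive values mean elongated (M2-like) cells; the paper's hit cutoffs are Z <= -4 (M1) and Z >= 6 (M2). Scale: negative = round, M1-like.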
As to `C[C@H]1O[C@@H](O[C@H]2C[C@@H](O)[C@]3(CO)C4C(CC[C@]3(O)C2)[C@@]2(O)CC[C@H](C3=CC(=O)OC3)[C@@]2(C)C[C@H]4O)[C@@H](O)[C@@H](O)[C@H]1O` (stereo partly drawn), the “cell shape (Z-score)” value was -0.886. The same measure for `CCN1CC2(COC(=O)c3ccccc3N3C(=O)CC(C)C3=O)CCC(OC)C34C5CC6C(OC)CC(O)(C5C6OC)C(O)(C(OC)C23)C14` (stereo not drawn): 2.9; for `CC1(C)C2CC(=O)[C@]3(C)C(CC[C@@]4(C)[C@H](c5ccoc5)OC(=O)C5OC543)[C@@]2(C)[C@@H](O)C[C@H]1O` (stereo partly drawn): 1.75; for `NCC(CC(=O)O)c1ccc(Cl)cc1` (stereo not drawn): 0.0322.

Take `O=[As](O)(O)c1ccc(Cc2ccc([As](=O)(O)O)cc2)cc1`: the “cell shape (Z-score)” value is -2.05. In the case of `OC1CCCCC1N1CCC(c2ccccc2)CC1` (stereo not drawn) it was 0.22; in that of `CCc1c(C(=O)C(N)=O)c2c(OCC(=O)O)cccc2n1Cc1ccccc1`, 0.42.

For the compound `c1cc(Cc2cnc[nH]2)ccn1`, the “cell shape (Z-score)” value amounted to 0.892. Regarding `N#CC(C#N)=NNc1ccc(OC(F)(F)F)cc1`, the “cell shape (Z-score)” value is 0.853. The same measure for `CCC1(c2ccc(N)cc2)CCC(=O)NC1=O` (stereo not drawn): -1.83; for `NC1(c2ccccc2Cl)CCCCC1=O` (stereo not drawn): -0.0304. In the case of `CCc1c(C(=O)OC)ncc2[nH]c3cc(OC)c(OC)cc3c12` it was 1.81; in that of `COc1cc2c(cc1OC)[C@@]13CCN4CC5=CCOC6CC(=O)N2C1[C@H]6[C@H]5C[C@H]43` (stereo partly drawn), 3.32. In the case of `CC(C)=CCCN1CCC(NC(=O)[C@](O)(c2ccccc2)C2CCCC2)CC1` it was 1.18; in that of `c1ccc2c(c1)OCC(C1=NCCN1)O2` (stereo not drawn), 1.7; in that of `COC(=O)C12CC3CC(C(C)O)C1N(CCc1c2[nH]c2ccc(OC)cc12)C3` (stereo not drawn), 2.06. Regarding `Cc1cc2c(C(C)C)c(O)c(O)c(C=O)c2c(O)c1-c1c(C)cc2c(C(C)C)c(O)c(O)c(C=O)c2c1O`, the “cell shape (Z-score)” value was 0.971 and 2.41. In the case of `C#CC(C)(O)CC` (stereo not drawn) it was 0.924; in that of `C[C@]1(C(=O)O)CCC[C@]2(C)c3cc(O)ccc3CC[C@@H]12`, 1.38. The same measure for `CCC(C)C(=O)O[C@@H]1C[C@@]2(C)[C@H](c3ccoc3)OC(=O)CC23OC2(C)OC34[C@H](OC(=O)C(C)C)[C@@]3(O)[C@@H](OC(=O)C5(C)OC5C)[C@@]5(C)C[C@]3(O)[C@@](C)([C@H]5CC(=O)OC)C14O2` (stereo partly drawn): -2.16; for `CCCCCCCCCOc1ccc2[nH]cc(CCN)c2c1`: -1.64.

For the compound `N[C@H](CO)Cc1ccccc1`, the “cell shape (Z-score)” value was -1.2.

On to `COc1cc2c(cc1O)CCNC2C` (stereo not drawn), for which the “cell shape (Z-score)” value turned out to be 0.68.

For the compound `NC1C[C@H]1c1ccccc1` (stereo partly drawn), the “cell shape (Z-score)” value stood at 1.94.

For `CC(C)c1cccc(C(C)C)c1O`, the “cell shape (Z-score)” value amounted to 3.46. In the case of `CCN1CC2(COC)CCC(O)C34C5CC6C(OC)CC(O)(C5C6O)C(C(OC)C23)C14` (stereo not drawn) it was 1.47 ± 1.2; in that of `O=c1cccc2n1C[C@@H]1CNC[C@H]2C1`, 1.02; in that of `CCOC(=O)c1cc2c(cn1)[nH]c1ccccc12`, 2.92.

For `CC(C)NCC(O)c1ccc([N+](=O)[O-])cc1` (stereo not drawn), the “cell shape (Z-score)” value was -1.7.

With `CCN1C[C@]2(OC(=O)c3ccccc3NC(C)=O)CCC(OC)[C@]34C1[C@H](CC23)[C@@]1(O)CC(OC)[C@H]2CC4C1(O)[C@H]2OC` (stereo partly drawn), the “cell shape (Z-score)” value turned out to be 0.943. The same measure for `CC(CCc1ccc(O)cc1)O[C@@H]1O[C@H](CO[C@H]2OC[C@](O)(CO)[C@H]2O)[C@@H](O)[C@H](O)[C@H]1O` (stereo partly drawn): 1.67. Regarding `COc1cc2c(cc1OC)[C@@H]1C(=O)c3ccc(OC)c(CC=C(C)C)c3O[C@@H]1CO2`, the “cell shape (Z-score)” value was -0.546. The same measure for `O[C@H]1CC2CCCC(C1)N2Cc1ccccc1` (stereo not drawn): 0.751; for `Cc1ccccc1-n1c(Cn2cnc3c(N)ncnc32)nc2cccc(C)c2c1=O`: 3.87.

On to `COC(=O)[C@@H]1C[C@H](OC(C)=O)C(=O)[C@H]2[C@@]1(C)CC[C@H]1C(=O)O[C@H](c3ccoc3)C[C@]21C`, for which the “cell shape (Z-score)” value is 2.72.

With `C=C1C(=O)O[C@@H]2[C@H]3C(=C)[C@@H](O)C[C@H]3C(=C)C[C@@H](O)[C@@H]12`, the “cell shape (Z-score)” value is -1.82. For `c1ccc2c(c1)[I+]c1ccccc1-2`, the “cell shape (Z-score)” value was -7.52. Consider `O=C1C2CCN(CC2)C1(CO)CO`, for which the “cell shape (Z-score)” value amounted to 2.31. As to `CCOc1ccccc1-n1c(C(C)N2CCN(C(=O)COc3ccc(Cl)cc3)CC2)nc2ccccc2c1=O` (stereo not drawn), the “cell shape (Z-score)” value was 6.52. The same measure for `COc1cc2ccc(=O)oc2c2ccoc12`: 5.77; for `CN1CCN(c2ccc3ccccc3n2)CC1`: -0.134; for `CC[C@H]1C2CC3[C@@H]4N(C)c5ccccc5[C@]45C[C@@H](C2C5O)N3[C@@H]1O` (stereo partly drawn): 0.277. In the case of `CCCCCCN1CCN(c2cccc(Cl)c2)CC1` it was -0.27.

The values above are taken from the supplement of paper PMC7858590.
